Measurements reported in PubChem BioAssay AID1159578 (Peter MacCallum Cancer Centre, 2015)
Here is an unselected part of about 18,000 reagents. About 1,030 of them (5.7%) count as active. 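Inactive calls also include pools with fewer than 3300 nuclei, whose migration was not assessed.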 Raw values are not corrected between plates. Unmarked entries are inactive. Not all columns of the deposit are shown.

Assay: 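siRNA pools altering how lymphatic endothelial cells close a scratch wound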 (primary screen)
System: human lymphatic endothelial cells
Reagents: siRNA pool against human genes, 40 nM
Timing: 48 h after transfection
Measurement: 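High-content imaging of dye-stained cells in a scratch assay measures filled wound area and nuclei per well; duplicate means given as ratio to mock and robust z-score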
Reading the numbers: migration robust z-score: higher = faster migration into the scratch; nuclei per well: higher = more cells in the well
Active means: 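Migration changed when robust z exceeds 2 or falls below -2 and mean nuclei number is at least 3300; otherwise not called changed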
Calls: active = migration changed; inactive = no migration change, or too few cells

target	migration robust z-score	nuclei per well, duplicate mean
TBATA	0.1	4880
DGKH	-0.39	4978
EDDM3A	0.4	5720
MTX2	-0.28	6188
AMBP	-0.31	6015
MTSS1	-1.3	4880
MIS18A	2.69 (active)	6282
MAFB	1.07	5903
KRTAP5-6	0.94	5466
PGAP1	-2.57 (active)	3901
TMPO	-1.21	5692
MRGPRE	-0.44	6386
MDGA1	-0.09	5668
MRPS9	0.99	5551
COG8	-0.3	5406
ABHD1	-0.31	6575
IGFBPL1	-0.13	6085
MED26	0.16	5250
DOCK5	-0.73	5762
AGRN	0.2	6154
FAM241A	1.71	5436
C8orf76	1.16	6440
SLC45A3	-3.54 (active)	4370
ATP5F1A	0.18	5617
OR4S2	0.05	3974
H4C11	-1.14	4640
RPS19	-2.17 (active)	3682
POU6F1	-0.83	4667
ASCL3	1.67	5108
TADA1	-0.08	6634
DGKB	0.18	7390
CCDC83	0.29	5612
ANKRD36B	0.14	5580
CYP11A1	-0.64	5862
OR4C16	0.52	6382
CAMK2G	-1.38	6091
HADH	-1.22	5634
PSMA7	0.83	5795
CANX	-0.04	5580
NTM	-2.4 (active)	3826
CXCL3	0.07	6153
ZNF497	-1.35	4454
PMP22	0.06	6487
OR10P1	-0.03	6240
GZMA	0.1	5885
NAPG	-0.66	5765
CCR10	-0.13	5025
CFAP157	-1.2	5758

The list goes on; the last 7 above are carried over.
target	migration robust z-score	nuclei per well, duplicate mean
ZNF497	-1.35	4454
PMP22	0.06	6487
OR10P1	-0.03	6240
GZMA	0.1	5885
NAPG	-0.66	5765
CCR10	-0.13	5025
CFAP157	-1.2	5758
SLC38A8	0.34	5262
NCOA2	1.58	6040
NPC1	-0.05	5742
CD81	0.34	5800
SHLD1	1.13	5657
MOB3C	-1.17	6208
MYO7A	0.91	5376
ENPP7	-1.3	5646
CMPK1	0.72	6666
TAGLN3	0.01	4344
WDR19	-0.75	3189
TMC6	1.58	5565
ANKMY2	0.66	6593
MEOX2	0.26	5954
TRIM64B	-1.69	4444
EYA4	0.16	3851
GALK1	-0.13	5190
FOXP4	-0.29	5298
PDZRN3	-0.05	5726
KLHL34	-0.08	6609
MAPK8IP1	-0.12	5951
HEATR1	0.73	5676
SPC25	-0.44	8709
OR5V1	-0.92	5358
ARGFX	-0.42	4976
